Assay [1] has as its target WT-CREB (pcDNA3.1(+), HA-tagged) (human) (UniProt P16220). As to the kind of experiment: co-IP; HA-tagged CREB constructs and ILF2-FLAG transfected into Bel-7402 cells; lysates immunoprecipitated with anti-HA or anti-FLAG antibodies, western blot.
Assay [2] has as its target hCREB-HA (lentiviral-based expression plasmid) (human) (UniProt P16220). The assay is described as above.
In assay [3] the target is human ILF2-FLAG (lentiviral-based expression plasmid) (human) (UniProt Q12905). The description is as above.
The target of assay [4] is Cyclic adenosine monophosphate (cAMP) response element-binding protein (CREB), endogenous (human (endogenous in Bel-7402 and SMMC-7721)) (UniProt P16220). As to the kind of experiment: proximity ligation; Duolink in situ red kit on cells fixed with 4% PFA; anti-CREB with anti-ILF2 or anti-ILF3; signal when probes are less than 40 nm apart.
The target is the same in assay [5]. As to the kind of experiment: co-IP; endogenous proteins; Bel-7402 and SMMC-7721 lysates, IP with anti-CREB or anti-ILF2 antibodies and protein A/G-Sepharose overnight at 4°C, western blot; IgG as negative control.
The target of assay [6] is purified protein CREB (Abnova #H00001385-P01) (human) (UniProt P16220). As to the kind of experiment: co-IP; in vitro reciprocal co-IP of purified CREB and ILF2 proteins with anti-CREB or anti-ILF2 antibodies, with DTT, western blot; both purified.
In assay [7] the target is Interleukin enhancer binding factor 2 (ILF2), endogenous (human (endogenous in Bel-7402 and SMMC-7721)) (UniProt Q12905). Briefly: co-IP; endogenous proteins; Bel-7402 and SMMC-7721 lysates, IP with anti-CREB or anti-ILF2 antibodies and protein A/G-Sepharose overnight at 4°C, western blot; IgG as negative control.

By UniProt entry, the sequences of proteins in these tests, tags left out. Where a name states a change or a piece, a line headed by the entry shows the natural chain unless it says otherwise. Chains listed by the source or under a name are the forms on record and can include a tag or linker.
Cyclic adenosine monophosphate (cAMP) response element-binding protein (CREB), endogenous (P16220-1, form named): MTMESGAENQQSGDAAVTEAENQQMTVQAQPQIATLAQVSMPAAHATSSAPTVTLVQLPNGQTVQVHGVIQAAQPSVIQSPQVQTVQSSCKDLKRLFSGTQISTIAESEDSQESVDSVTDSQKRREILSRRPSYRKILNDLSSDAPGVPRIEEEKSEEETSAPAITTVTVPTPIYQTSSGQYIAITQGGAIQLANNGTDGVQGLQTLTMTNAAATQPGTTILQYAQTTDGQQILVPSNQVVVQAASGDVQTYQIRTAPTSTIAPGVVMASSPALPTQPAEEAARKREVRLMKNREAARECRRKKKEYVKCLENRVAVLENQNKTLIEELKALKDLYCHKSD
UniProt Q12905: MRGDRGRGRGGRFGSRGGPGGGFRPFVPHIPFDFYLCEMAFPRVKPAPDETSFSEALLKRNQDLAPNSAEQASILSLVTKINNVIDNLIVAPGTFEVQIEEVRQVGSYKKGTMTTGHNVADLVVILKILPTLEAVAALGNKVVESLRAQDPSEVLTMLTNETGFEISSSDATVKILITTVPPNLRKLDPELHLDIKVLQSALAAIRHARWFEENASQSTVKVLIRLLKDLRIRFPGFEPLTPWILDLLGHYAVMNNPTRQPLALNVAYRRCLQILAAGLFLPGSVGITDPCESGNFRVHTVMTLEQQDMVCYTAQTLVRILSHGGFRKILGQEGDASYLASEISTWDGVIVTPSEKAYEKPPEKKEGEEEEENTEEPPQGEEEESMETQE

These are yes or no findings as the source states them, for the method shown. For some of these results: In cells and extracts the contact can be indirect. Some results given as binding are weak or reduced against the parent protein; the word gives no strength.

For the substance “human ILF2-FLAG (lentiviral-based expression plasmid) (from UniProt Q12905 1-390)”, the binding entry in assay [1] and in assay [2] was “binds” throughout.

With “hCREB-HA (lentiviral-based expression plasmid) (from UniProt P16220-1 1-341)”, in assay [3], the binding result was “binds”.

With “Interleukin enhancer binding factor 2 (ILF2), endogenous (from UniProt Q12905 1-390)”, the binding result in assay [4] and in assay [5] was “binds” throughout. As to “purified protein ILF2 (Abnova #H00003608-P01) (from UniProt Q12905 1-390)”, the binding entry in assay [6] is “binds”. For “Cyclic adenosine monophosphate (cAMP) response element-binding protein (CREB), endogenous (from UniProt P16220-1 1-341)”, the binding result in assay [7] is listed as “binds”.

These data come from paper PMC6387701.
